Test results as given in patent US10857167B2, “Use of oligosaccharide compositions to enhance weight gain” (Children's Hospital Medical Center, priority 2015, dated 2020).
The source gives many values for each of these; only a part stands here.

Tested on: distal small bowel gene expression
Test: RNA sequencing / transcriptional analysis of small bowel 56 days after ICR (2′-FL signature response)
Type: in vivo, mouse
From the text: Luminal small bowel contents were expressed into AllProtect Tissue Reagent (Qiagen Inc, CA). Bacterial DNA was extracted using the AllPrep DNA/RNA Mini Kit (Qiagen Inc, CA), according to kit instructions and prior to sequencing (described below). Small bowel tissue samples for RNA were placed into RNA Later (Life Technologies, NY). RNA extraction was accomplished following Qiagen RNeasy Plus Kit instruction (Qiagen Inc, CA). All nucleic acid samples were then stored at -80 Celsius until sequenced (described below). Transcriptional analysis was carried out on resected and harvested small bowel samples obtained from operated mice taken to 8 weeks. Murine RNA sequencing libraries were prepared from approximately 1.5 μg RNA using the TruSeq RNA Sample Preparation Kit (Illumina, Calif.) and sequenced using the HiSeq 2000 Sequencing System (Illumina, Calif.) with single-end 50 bp reads. Following removal of primers and barcodes, sequences were aligned to the mm10 genome using reference annotations from UCSC (Rosenbloom et al. (2015) Nucleic acids research 43: […]-681) (n=36,186 entities). Aligned reads were quantified and used to compute reads per kilobase per million mapped reads (RPKM); raw counts were then normalized using the DESeq algorithm and each harvested sample was baselined to its own resected sample. A filter was applied to the data, requiring at least three reads in all samples of at least one of the four experimental conditions (n=14,489 entities). The data discussed in this publication have been deposited in NCBI's Gene Expression Omnibus and are accessible through NCBI Gene Expression Omnibus (GEO) Series accession number GSE72590. Edgar et al. (2002) Nucleic acids research 30: 207-210. In order to characterize the impact of 2'-FL supplementation while accounting for the effect of ileoecal resection, a t-test was applied between resected and harvested samples within control and experimental animals. Significance was set at a p-value of ≤0.05 and a fold change of 3, which generated 2,576 differentially regulated entities across two comparisons. Gene set unions and intersections of the control and experimental gene sets were identified through Venn diagrams. From the master list, the gene list specific to animals supplemented with 2'-FL were removed in order to identify genes differentially regulated only by ICR (n=546 entities); this gene set characterizes the adaptive response. Further, the 2'-FL response (n=2,030 entities) was identified by removing the adaptive response signature described above from the master list, leaving only genes regulated by 2'-FL supplementation after ICR which were not found in the non-supplemented adaptive response. Heatmaps were generated using hierarchical clustering with the Pearson's Centered distance metric and the average linkage rule; both entities and samples were clustered. All genomic analyses described above were performed in Strand NGS (Strand Life Sciences, CA). Gene list functional enrichment was initially discovered using ToppFun, a member of the ToppGene Suite. Chen et al. (2009) Nucleic acids research 37: […]-311. No statistical correction was selected. Gene lists were further analyzed using ClueGO, a plugin for Cytoscape designed to decipher functionally grouped gene ontology and pathway annotation networks. Bindea et al. (2009) Bioinformatics 25: 1091-1093. At the time of data analysis, the annotation files were updated from sources to Jan. 1, 2015. “GO Term Fusion” was enabled to manage ontologic term redundancy and network specificity was set to medium. Results were restricted to pathways with p≤0.05 using Benjamini-Hochberg correction and Kappa scoring was set to 0.4. Biocyc annotations were assigned a rectangle, gene ontology biologic processes were assigned an ellipse, and […] annotations were assigned a diamond shape. No meaning was assigned to size or color. […]

## C[C@@H]1O[C@@H](O[C@H]2[C@H](O[C@H]3[C@H](O)[C@@H](O)C(O)O[C@@H]3CO)O[C@H](CO)[C@H](O)[C@@H]2O)[C@@H](O)[C@H](O)[C@@H]1O (stereo partly shown) [2′-FL, 2′-fucosyllactose]
Sdhd
  Fold Change (Pre- to Post-op): 3.63
Sec61b
  Fold Change (Pre- to Post-op): 3.69
Sec61g
  Fold Change (Pre- to Post-op): 5.219
Sectm1a
  Fold Change (Pre- to Post-op): 3.311
Sepw1
  Fold Change (Pre- to Post-op): 3.354
Serf2
  Fold Change (Pre- to Post-op): 3.945
Serhl
  Fold Change (Pre- to Post-op): 3.091
Serpina3a
  Fold Change (Pre- to Post-op): 4.605
Sgcg
  Fold Change (Pre- to Post-op): 4.321
Sh3bp4
  Fold Change (Pre- to Post-op): −3.004
Sirt3
  Fold Change (Pre- to Post-op): 3.477
Sla2
  Fold Change (Pre- to Post-op): 3.355
Slc6a3
  Fold Change (Pre- to Post-op): 3.249
Slc6a18
  Fold Change (Pre- to Post-op): 7.382
Slc35d2
  Fold Change (Pre- to Post-op): 3.002
Slc51b
  Fold Change (Pre- to Post-op): 4.575
Slfn2
  Fold Change (Pre- to Post-op): 3.005
Slirp
  Fold Change (Pre- to Post-op): 3.621
Slpi
  Fold Change (Pre- to Post-op): 8.999
Smdt1
  Fold Change (Pre- to Post-op): 3.662
Smim8
  Fold Change (Pre- to Post-op): 3.276
Smim15
  Fold Change (Pre- to Post-op): 3.118
Smim20
  Fold Change (Pre- to Post-op): 3.769
Smlr1
  Fold Change (Pre- to Post-op): 3.977
Snhg9
  Fold Change (Pre- to Post-op): 5.506
Snhg10
  Fold Change (Pre- to Post-op): 3.516
Snrnp25
  Fold Change (Pre- to Post-op): 4.916
Snrpd1
  Fold Change (Pre- to Post-op): 3.053
Snrpd2
  Fold Change (Pre- to Post-op): 3.245
Snrpe
  Fold Change (Pre- to Post-op): 3.535
Snrpg
  Fold Change (Pre- to Post-op): 3.221
Sod1
  Fold Change (Pre- to Post-op): 3.013
Spa17
  Fold Change (Pre- to Post-op): 3.35
Spdya
  Fold Change (Pre- to Post-op): 3.854
Spp1
  Fold Change (Pre- to Post-op): 6.685
Sprr1a
  Fold Change (Pre- to Post-op): 5.778
Spryd7
  Fold Change (Pre- to Post-op): 3.948
Sptssa
  Fold Change (Pre- to Post-op): 4.616
Ssna1
  Fold Change (Pre- to Post-op): 4.034
Ssr4
  Fold Change (Pre- to Post-op): 3.918
Stk16
  Fold Change (Pre- to Post-op): 3.628
Stmnd1
  Fold Change (Pre- to Post-op): 5.003
Stra13
  Fold Change (Pre- to Post-op): 3.6
Styxl1
  Fold Change (Pre- to Post-op): 9.073
Sub1
  Fold Change (Pre- to Post-op): 3.541
Sult1d1
  Fold Change (Pre- to Post-op): 3.024
Sumo1
  Fold Change (Pre- to Post-op): 3.071
Sun3
  Fold Change (Pre- to Post-op): 3.257
Syce3
  Fold Change (Pre- to Post-op): 6.617
Tatdn3
  Fold Change (Pre- to Post-op): 3.064
Tbca
  Fold Change (Pre- to Post-op): 3.568
Tceb1
  Fold Change (Pre- to Post-op): 3.464
Tcrg-V7
  Fold Change (Pre- to Post-op): 3.042
Tcta
  Fold Change (Pre- to Post-op): 3.223
Tead4
  Fold Change (Pre- to Post-op): −3.006
Tefm
  Fold Change (Pre- to Post-op): 5.047
Tex14
  Fold Change (Pre- to Post-op): 9.152
Tgds
  Fold Change (Pre- to Post-op): 3.307
Thoc7
  Fold Change (Pre- to Post-op): 3.381
Timm8b
  Fold Change (Pre- to Post-op): 5.609
Timm10
  Fold Change (Pre- to Post-op): 3.177
Timm10b
  Fold Change (Pre- to Post-op): 3.175
Timp1
  Fold Change (Pre- to Post-op): 6.763
Tm2d1
  Fold Change (Pre- to Post-op): 3.704
Tma7
  Fold Change (Pre- to Post-op): 3.664
Tmem14c
  Fold Change (Pre- to Post-op): 3.542
Tmem17
  Fold Change (Pre- to Post-op): 4.923
Tmem29
  Fold Change (Pre- to Post-op): 3.596
Tmem120a
  Fold Change (Pre- to Post-op): 3.535
Tmem126a
  Fold Change (Pre- to Post-op): 3.547
Tmem141
  Fold Change (Pre- to Post-op): 3.785
Tmem147
  Fold Change (Pre- to Post-op): 3.294
Tmem160
  Fold Change (Pre- to Post-op): 3.219
Tmem167
  Fold Change (Pre- to Post-op): 3.465
Tmem202
  Fold Change (Pre- to Post-op): 18.02
Tmem205
  Fold Change (Pre- to Post-op): 3.889
Tmem208
  Fold Change (Pre- to Post-op): 4.011
Tmem242
  Fold Change (Pre- to Post-op): 3.513
Tmem243
  Fold Change (Pre- to Post-op): 3.368
Tmem256
  Fold Change (Pre- to Post-op): 5.43
Tmem261
  Fold Change (Pre- to Post-op): 3.229
Tmigd1
  Fold Change (Pre- to Post-op): 5.849
Tmsb10
  Fold Change (Pre- to Post-op): 3.554
Tnfsf13
  Fold Change (Pre- to Post-op): 5.041
Tnni1
  Fold Change (Pre- to Post-op): 7.38
Tnnt1
  Fold Change (Pre- to Post-op): 3.164
Tomm5
  Fold Change (Pre- to Post-op): 5.495
Tomm7
  Fold Change (Pre- to Post-op): 3.32
Tomm20
  Fold Change (Pre- to Post-op): 3.751
Tomm40l
  Fold Change (Pre- to Post-op): 3.767
Tpsb2
  Fold Change (Pre- to Post-op): 11.69
Trappc2l
  Fold Change (Pre- to Post-op): 3.461
Triqk
  Fold Change (Pre- to Post-op): 3.242
Trub2
  Fold Change (Pre- to Post-op): 3.313
Tsc2
  Fold Change (Pre- to Post-op): −3.008
Tspo2
  Fold Change (Pre- to Post-op): 3.759
Tstd1
  Fold Change (Pre- to Post-op): 5.012
Tubal3
  Fold Change (Pre- to Post-op): 3.046
Tusc2
  Fold Change (Pre- to Post-op): 4.502
Tvp23a
  Fold Change (Pre- to Post-op): 3.077
Ubd
  Fold Change (Pre- to Post-op): 8.971
Ube2t
  Fold Change (Pre- to Post-op): 3.289
Ubxn6
  Fold Change (Pre- to Post-op): 3.221
Ugt2b35
  Fold Change (Pre- to Post-op): 3.331
Upb1
  Fold Change (Pre- to Post-op): 7.463
Uqcc2
  Fold Change (Pre- to Post-op): 5.364
Uqcr10
  Fold Change (Pre- to Post-op): 4.682
Uqcr11
  Fold Change (Pre- to Post-op): 4.1
Uqcrh
  Fold Change (Pre- to Post-op): 4.939
Uqcrq
  Fold Change (Pre- to Post-op): 5.268
Urm1
  Fold Change (Pre- to Post-op): 3.576
Usmg5
  Fold Change (Pre- to Post-op): 6.564
Uxt
  Fold Change (Pre- to Post-op): 3.219
Vamp8
  Fold Change (Pre- to Post-op): 3.353
Vars
  Fold Change (Pre- to Post-op): −3.002
Vcpkmt
  Fold Change (Pre- to Post-op): 3.052
Vmp1
  Fold Change (Pre- to Post-op): 3.307
Vps29
  Fold Change (Pre- to Post-op): 3.971
Vti1b
  Fold Change (Pre- to Post-op): 3.377
Vwa7
  Fold Change (Pre- to Post-op): 5.626
Wdpcp
  Fold Change (Pre- to Post-op): 3.182
